Measured data: PubChem BioAssay AID686937 (Drosophila RNAi Screening Center, 2013)
Test: 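Genes whose loss weakens secretory pathway function in fly cells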 (primary screen). Cells: Drosophila S2 cells expressing secreted horseradish peroxidase. Reagent: long dsRNA against Drosophila genes. Time to read-out: about 5.5 days (5 days dsRNA, then 12 h reporter induction). Conditions: reporter expression induced after 5 days of dsRNA, read 12 h later; inducer not stated. Measured: 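Chemiluminescent measurement of peroxidase in the medium 12 h after reporter induction, following 5 days of dsRNA, given as a z-score per plate; higher means more secretion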. Reading the numbers: z-score: higher = more reporter secreted into medium.
In all, the deposit lists about 23,000 reagents; below is a random part of those that have a named target and a result. 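Reduced-secretion tags in replicate 1 do not always agree with the z-scores; no criterion for assigning the tags was given.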 Names joined by + are all predicted targets of the reagent. Further read-outs or replicates are left out here. The record does not give: the amount of reagent.

Ice1 [DRSC04191] showed z-score, replicate 1 = -4.64; phenotype, replicate 1 = reduced secretion.
CG5114 [DRSC10482] showed z-score, replicate 1 = 0.01.
Against GstO2 [DRSC10691], the entry reads z-score, replicate 1 = 0.1.
After knock-down of CG43367 [DRSC08299], the screen gave z-score, replicate 1 = 0.26.
Knock-down of CG43367 [DRSC08301] came out at: z-score, replicate 1 = 0.06.
With knock-down of CG43367 [DRSC08309] the results were z-score, replicate 1 = -0.59.
After knock-down of Desat1 [DRSC16668] the results were z-score, replicate 1 = -4.89; phenotype, replicate 1 = reduced secretion.
With knock-down of CG8661 [DRSC20115], the screen gave z-score, replicate 1 = -0.06.
For Prosalpha4T2 [DRSC04643], the values are z-score, replicate 1 = 0.2.
Sf3b5 [DRSC14460] scored z-score, replicate 1 = -2.58; phenotype, replicate 1 = reduced secretion.
For CG7335 [DRSC10816], the entry reads z-score, replicate 1 = 0.25.
Ilp6 [DRSC17906] scored z-score, replicate 1 = -6.47.
CG12730 [DRSC17885] gave z-score, replicate 1 = 0.42.
With knock-down of CG6749 [DRSC10704], the screen gave z-score, replicate 1 = 0.43.
Against Prp18 [DRSC16802], the values are z-score, replicate 1 = -1.19.
With knock-down of BomS2 [DRSC21488] the results were z-score, replicate 1 = 1.02.
With knock-down of Skp2 [DRSC12329], the screen gave z-score, replicate 1 = -0.4.

3 entries from above, showing only “z-score, replicate 1”.
Sf3b5 [DRSC14460]	-2.58
CG7335 [DRSC10816]	0.25
Ilp6 [DRSC17906]	-6.47

The results go on:
CG32271 [DRSC08198] showed z-score, replicate 1 = 0.12.
After knock-down of CG15922 [DRSC15128], the record shows z-score, replicate 1 = 0.26.
Against nkt [DRSC10144] the deposit lists z-score, replicate 1 = 0.53.
Knock-down of CG12391 [DRSC06147] gave: z-score, replicate 1 = 0.46.
Gos28 [DRSC16292] gave z-score, replicate 1 = 0.17.
Gos28 [DRSC22859] gave z-score, replicate 1 = 1.33.
Against Vha100-1 [DRSC14148] the deposit lists z-score, replicate 1 = 0.39.
Knock-down of Brd8 [DRSC14866] came out at: z-score, replicate 1 = 0.6.
Depletion of nuf [DRSC11379] gave: z-score, replicate 1 = 0.39.
After knock-down of nuf [DRSC22524], the screen gave z-score, replicate 1 = -1.05.
Silencing of CkIIalpha-i3 [DRSC08651] gave: z-score, replicate 1 = 0.02.
Silencing of Nph [DRSC16342] gave: z-score, replicate 1 = 0.
Depletion of CG42512 + CG32573 [DRSC19532] came out at: z-score, replicate 1 = -0.29.
Depletion of CG42512 + CG32573 [DRSC19906] gave: z-score, replicate 1 = 0.37.
CG42512 + CG32573 [DRSC22782] showed z-score, replicate 1 = 0.66.
With knock-down of bocks [DRSC16489], the record shows z-score, replicate 1 = 0.47.
For CAH1 + Adat1 [DRSC02009] the deposit lists z-score, replicate 1 = 0.36.
With knock-down of Ir68a [DRSC10599], the screen gave z-score, replicate 1 = 0.28.
With knock-down of I-3 [DRSC20479], the record shows z-score, replicate 1 = -0.04.
After knock-down of CG5323 [DRSC06929], the screen gave z-score, replicate 1 = 0.11.
Depletion of ec [DRSC17285] resulted in: z-score, replicate 1 = 0.52.
After knock-down of ec [DRSC17286], the record shows z-score, replicate 1 = 1.02.
ec [DRSC18658] gave z-score, replicate 1 = 0.51.
